# Measurements reported in patent publication US20160177259A1, “[…]” (Evonik Degussa GmbH, priority 2014, published 2016).
# Tested on: Clostridium ljungdahlii
# Test: Formation of acetic acid and ethanol from synthesis gas in CGF1 mineral medium with refeeding of cysteine (Example 3)
# Format: cell-based
# Method: For the biotransformation of hydrogen and carbon dioxide to acetic acid and ethanol the homoacetogenic bacterium Clostridium ljungdahlii was cultivated on synthesis gas with refeeding of cysteine. All cultivation steps were carried out under anaerobic conditions in pressure-resistant glass bottles that can be closed airtight with a butyl rubber stopper.
# The chemolithoautotrophic cultivation was carried out in a 1 L pressure-resistant glass bottle at 37° C., 100 rpm and a ventilation rate of 3 L/h with a premixed gas with 67% H2, 33% CO2 in an open water bath shaker for 69 h till OD600nm>0.4. The gas was discharged into the medium through a sparger with a pore size of 10 μm, which was mounted in the center of the reactors. Then the cell suspension was centrifuged and the cell pellet was resuspended in fresh CGF1 mineral medium as disclosed below.
# For the production phase, as many washed cells from the preculture of C. ljungdahlii as necessary for an OD600nm of 0.2 were added to 100 ml mineral medium (CGF1 medium, pH 6.5, 1.4 g/L KOH, 2 g/L (NH4)2SO4, 1 g/L KH2PO4, 1 g/L K2HPO4, 10 mg/L FeSO4 X 7 H2O, 3.8 mg/L MnSO4 X 1 H2O, 246 mg/L MgSO4×7 H2O, aerated for 30 min with a premixed gas with 67% H2 and 33% CO2). […] The cultivation was carried out in 500 mL pressure-resistant glass bottles at 37° C., 150 rpm in an open water bath shaker for 163 h which were aerated to an overpressure of 0.8 bar with a premixed gas with 67% H2, 33% CO2 one time a day. The pH was held >5.0 by intermittent additions of a 140 g/L KOH solution. During the cultivation several 5 mL samples were taken to determinate OD600nm, pH and product formation. […] The determination of the product concentrations including the L-Cysteine concentration was performed by semiquantitative ^1H-NMR spectroscopy. As an internal quantification standard sodium trimethylsilylpropionate (T(M)SP) was used.
compound,measurement,setting,value
"Cl.N[C@@H](CS)C(=O)O [L-Cysteine-HCl, L-cysteine hydrochloride]",L-Cysteine,"culture A, 400 mg/L L-cysteine-hydrochloride at start, no refeed, 0 h",270.0 mg/L
same,L-Cysteine,"culture A, 400 mg/L L-cysteine-hydrochloride at start, no refeed, 18.75 h",70.0 mg/L
same,L-Cysteine,"culture B, 200 mg/L L-cysteine-hydrochloride at start, no refeed, 0 h",132.5 mg/L
same,L-Cysteine,"culture C, 200 mg/L L-cysteine-hydrochloride at start, re-fed 200 mg/L after 18, 41, 65, 89 h, 0 h",120.0 mg/L
same,L-Cysteine,"culture C, 200 mg/L L-cysteine-hydrochloride at start, re-fed 200 mg/L after 18, 41, 65, 89 h, 46.75 h",123.0 mg/L
same,L-Cysteine,"culture C, 200 mg/L L-cysteine-hydrochloride at start, re-fed 200 mg/L after 18, 41, 65, 89 h, 69.5 h",108.0 mg/L
same,L-Cysteine,"culture C, 200 mg/L L-cysteine-hydrochloride at start, re-fed 200 mg/L after 18, 41, 65, 89 h, 95.5 h",89.0 mg/L
